Consider 1 sequence from publication PMC8741850.

This data set addresses T1, HA-C/EBPβ (WT), overexpressed in NRCMs (UniProt P21272).
T1 sequence (looked up, limits assumed): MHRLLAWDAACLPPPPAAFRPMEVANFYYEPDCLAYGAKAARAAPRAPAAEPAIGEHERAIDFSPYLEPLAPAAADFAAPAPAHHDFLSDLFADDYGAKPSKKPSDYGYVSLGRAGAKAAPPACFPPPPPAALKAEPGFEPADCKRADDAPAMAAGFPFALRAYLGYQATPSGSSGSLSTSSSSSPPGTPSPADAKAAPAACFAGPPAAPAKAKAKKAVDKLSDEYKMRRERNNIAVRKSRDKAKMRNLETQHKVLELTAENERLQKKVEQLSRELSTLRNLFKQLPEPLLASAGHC
Nature of the data set: EMSA. Particulars: nuclear extract of NRCMs overexpressing HA-WT C/EBPβ, control without PARP1 siRNA or inhibitor; EMSA (LightShift): 5 μg nuclear protein, 1 μg poly(dI-dC), 0.05% NP-40, 5 mM MgCl2, 2.5% glycerol, room temperature 10 + 20 min; 6% non-denaturing gel; protein in an extract; protein details: HA; label: 3'-biotin. (In EMSA bound probe runs differently from free probe, usually more slowly.)

For at least one entry, the source does not settle the construct or the ends of the probe. Where cells or extracts were used, other partners may take part. At least one verdict was read from the data and is not stated in words by the source. Protein sequences can lack the tags named with them.

Regarding “CGCCTTATTGCGCAATTGCCGC (double strand) [biotin-labeled C/EBPβ probe]”, the binding result is reported as “binds”.
